Values are relative to the signal before dosing, not to a vehicle control; the signal also falls without drug.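 Fibroblast labels name human fibroblasts: mostly primary ones from tissues such as uterus (C12385, HUF), lung (H6013), bone (Hs27A), adrenal (HADF) and skin (WS1), plus mammary HMF and breast cancer-associated Hs343T. The cancer cells are basal-like or mesenchymal-like triple-negative breast cancer lines. The paper calls a changed response a hit when it shifts by more than 3x the replicate standard deviation. The tissue of the other fibroblasts is not given here.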
System: MDAMB436
Assay: relative JC-1 red fluorescence (viability) vs pre-drug, coculture with fibroblast (fraction); higher = more viable cancer cells
Description: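 JC-1 labelled TNBC cells cocultured 1:1 (1,500 cells each) with CellTrace Violet stained primary or stromal fibroblasts in 384-well plates in FluoroBrite medium, treated with one of 42 anticancer drugs at 0.1, 1, 10 or 100 uM. JC-1 red fluorescence (mitochondrial integrity in cancer cells only) was read by plate reader every 8 h for 72 h. Values are normalised to each well's pre-drug value. The stock of one drug was tenfold lower, so its dose labels may be too high.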

O=c1[nH]cc(F)c(=O)[nH]1 [Fluorouracil]
relative JC-1 red fluorescence
Settings	8 h	16 h	24 h	32 h	40 h	48 h	56 h	64 h	72 h
0.1 µM, coculture fibroblast: C12385	0.859	0.729	0.729	0.679	0.645	0.634	0.632	0.623	0.623
0.1 µM, coculture fibroblast: H6013	0.868	0.732	0.744	0.734	0.72	0.727	0.689	0.661	0.617
0.1 µM, coculture fibroblast: H6019	0.743	0.6187	0.598	0.516	0.473	0.45	0.422	0.394	0.372
0.1 µM, coculture fibroblast: H6076	0.752	0.643	0.63	0.595	0.583	0.562	0.577	0.57	0.558
0.1 µM, coculture fibroblast: H6231	0.772	0.7	0.666	0.602	0.58105	0.54	0.527	0.504	0.473
0.1 µM, coculture fibroblast: HADF	0.827	0.744	0.734	0.719	0.716	0.735	0.674	0.664	0.625
0.1 µM, coculture fibroblast: HCFa	0.7762	0.656	0.618	0.583	0.545	0.556	0.486	0.475	0.419
0.1 µM, coculture fibroblast: HCPF	0.794	0.703	0.668	0.61	0.587	0.551	0.526	0.501	0.4795
0.1 µM, coculture fibroblast: HHSteC	0.823	0.744	0.723	0.691	0.667	0.674	0.619	0.597	0.5419
0.1 µM, coculture fibroblast: HMF	0.785	0.673	0.647	0.612	0.602	0.577	0.574	0.549	0.539
0.1 µM, coculture fibroblast: HPFa	0.881	0.7959	0.754	0.7	0.664	0.666	0.587	0.555	0.481
0.1 µM, coculture fibroblast: HUF	0.842	0.7191	0.682	0.606	0.55	0.522	0.5	0.4836	0.4739
0.1 µM, coculture fibroblast: Hs5	0.80157	0.702	0.691	0.641	0.632	0.591	0.607	0.571	0.563
0.1 µM, coculture fibroblast: Hs27A	0.794	0.721	0.692	0.669	0.639	0.693	0.597	0.573	0.497
0.1 µM, coculture fibroblast: Hs343T	0.76	0.644	0.589	0.545	0.51	0.483	0.461	0.43642	0.4312
0.1 µM, coculture fibroblast: WS1	0.775	0.633	0.61	0.531	0.489	0.463	0.439	0.41	0.404
1 µM, coculture fibroblast: C12385	0.796	0.654	0.652	0.578	0.529	0.504	0.493	0.479	0.478
1 µM, coculture fibroblast: H6013	0.822	0.7127	0.6917	0.6687	0.647	0.663	0.627	0.615	0.57
1 µM, coculture fibroblast: H6019	0.744	0.644	0.631	0.557	0.522	0.513	0.487	0.466	0.435
1 µM, coculture fibroblast: H6076	0.782	0.653	0.665	0.636	0.61	0.584	0.589	0.582	0.579
1 µM, coculture fibroblast: H6231	0.7398	0.639	0.6218	0.56	0.517	0.504	0.4851	0.464	0.441
1 µM, coculture fibroblast: HADF	0.811	0.719	0.734	0.711	0.708	0.731	0.684	0.679	0.645
1 µM, coculture fibroblast: HCFa	0.7604	0.6586	0.6336	0.599	0.567	0.59	0.519	0.51	0.461
1 µM, coculture fibroblast: HCPF	0.775	0.665	0.652	0.594	0.556	0.527	0.5	0.49	0.465
1 µM, coculture fibroblast: HHSteC	0.844	0.767	0.739	0.699	0.687	0.69	0.631	0.609	0.556
1 µM, coculture fibroblast: HMF	0.789	0.662	0.64	0.599	0.562	0.526	0.52	0.502	0.494
1 µM, coculture fibroblast: HPFa	0.922	0.833	0.74	0.791	0.7214	0.765	0.727	0.68	0.737
1 µM, coculture fibroblast: HUF	0.857	0.731	0.701	0.629	0.568	0.541	0.52	0.501	0.492
1 µM, coculture fibroblast: Hs5	0.844	0.73	0.701	0.634	0.614	0.5674	0.568	0.545	0.536
1 µM, coculture fibroblast: Hs27A	0.837	0.78	0.758	0.744	0.719	0.7758	0.687	0.675	0.606
1 µM, coculture fibroblast: Hs343T	0.774	0.64	0.5965	0.5583	0.5236	0.4895	0.4713	0.46516	0.458
1 µM, coculture fibroblast: WS1	0.777	0.671	0.6681	0.5925	0.552	0.531	0.51	0.492	0.481

Source: the supplement of paper PMC6078165
